Experimental data taken from PubChem BioAssay AID2685 (National Center for Advancing Translational Sciences (NCATS), 2010).
The list shows a part of the results. These are further read-outs of the screen, such as a control signal, another cell line or another target. No call is given for them. The list favours compounds with an active or inconclusive main result. Words in brackets tell the shape of the fitted curve; partial curves, single points and poor fits give uncertain potencies.

Experiment: qHTS Assay for Lipid Storage Modulators in Drosophila S3 Cells;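 on cell number change: cells counted by Cell Tracker Red CMTPX staining in the red channel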
Details: BODIPY lipid droplet fluorescence, 18-24 h; for cell number change: measured here: cell count max response, cells fed with added oleic acid
Outline: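 Laser-scanning cytometry quantifies lipid droplet accumulation (500–530 nm total intensity; droplet/cell object ratio) in oleic acid-fed (400 uM added) Drosophila S3 cells treated with a concentration series. 20 uM Triacsin C defined 100% inhibition.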

[1] = measured here: lipid fluorescence (Fed channel) AC50, cells fed with added oleic acid
[2] = measured here: cell number channel AC50, cells fed with added oleic acid

SMILES	cell number change [%]	AC50 [1]	AC50 [2]
O=C(NCC1COCCO1)c1ccc(OC2CCN(CCc3ccccc3)CC2)cc1 (configuration not stated)	-23.5	7.31 µM [rising, partial curve]	–
CC(C)(C)[C@H]1C=C(C(=O)N2CCN(Cc3ccccc3)CC2)O[C@@H](OCCCCO)C1	5.33	6.51 µM [falling, single point]	–
CCCOc1ccc(/C=N/n2nnnc2N)cc1OC	-41.8	6.51 µM [falling, single point]	20.6 µM [falling, partial curve, poor fit]
COc1ccc(/C(C)=N/NC(=O)c2cc(-c3cccnc3)nc3ccccc23)cc1	23.8	0.0259 µM [rising, full curve, poor fit]	–
Cc1cc(C(=O)CN2C(=O)NC(c3ccccc3)(c3ccccc3)C2=O)c(C)n1Cc1ccco1	-26.5	18.4 µM [falling, partial curve, poor fit]	–
CNCc1cc(Cl)cc(OC)c1OC(C)C	-10.6	4.47 µM [falling, full curve, poor fit]	–
O=C(N/N=C/c1ccc(Cl)c([N+](=O)[O-])c1)c1cnccn1	-0.0785	5.8 µM [falling, single point]	–
O=C(Nc1nccs1)C(c1ccccc1)N1CCCC1 (configuration not stated)	14.6	0.00517 µM [falling, full curve, poor fit]	–
CC(=O)Nc1ccc(NC(=O)N2CCCCC2)cc1	-9.92	–	–
Cc1ccc2[nH]c(=O)c(CN(Cc3cccs3)S(=O)(=O)c3ccc4c(c3)OCCO4)cc2c1	-6.58	18.4 µM [rising, single point]	–
O=C1NCCN1Cc1cccc(Cl)c1	–	6.51 µM [rising, single point]	–
CSc1ccccc1NC(=O)CN(C)C(=O)c1ccc2c(c1)OCCO2	-20.9	0.82 µM [falling, full curve, poor fit]	–
CC(=O)Nc1ccc(S(=O)(=O)N/N=C/c2ccc(C)s2)cc1	–	5.8 µM [rising, single point]	0.092 µM [rising, partial curve, poor fit]
NNC(=O)CNc1ccccc1Cl	6.92	0.517 µM [falling, full curve]	–
O=C(Nc1nnc(C(F)(F)F)s1)c1c(F)cccc1F	19	0.164 µM [falling, full curve]	3.66 µM [rising, full curve, poor fit]
COc1ccc(CCNC(=O)CCCc2nnc3n(C)c(=O)c4sccc4n23)cc1OC	10.4	16.4 µM [rising, single point]	–

Single records, from the list above.
O=C(NCC1COCCO1)c1ccc(OC2CCN(CCc3ccccc3)CC2)cc1 (configuration not stated) is listed as cell number change [%]: -23.5; AC50 [1]: 7.31 µM [rising, partial curve]
O=C(Nc1nnc(C(F)(F)F)s1)c1c(F)cccc1F is listed as cell number change [%]: 19; AC50 [1]: 0.164 µM [falling, full curve]; AC50 [2]: 3.66 µM [rising, full curve, poor fit]
